# “And” between values parts separate entries of the source, which are not always exact repeats. Equal values may be shown once. The whole screen tested about 300,000 compounds, of which about 3,700 (1.2%) were called active. The shares of active, inactive and inconclusive entries below differ from those in the screen. Calls follow the shape of the full dose curve; tested in HEK293 cells. Where the call is inconclusive, the potency comes from a doubtful curve fit.
# Assay: qHTS for Inhibitors of binding or entry into cells for Lassa Virus; also: nearly all actives have a fitted effect of over 50% in size
# Conditions: Lassa virus pseudotype entry inhibition, cell reporter; activity change, negative = inhibition: at 37.9 µM (top of the series) unless noted
# % is scaled to controls: 0 for no effect and ±100 for the full control effect; potency is read from the fitted curve at half-maximal effect.
SMILES,Potency,"activity change, negative = inhibition"
Cn1c(=O)n(C/C=C/c2ccccc2)c(=O)c2c1nc1n2CCCN1c1ccc(F)cc1,"inconclusive: 23.1 µM [inhibitor, partial curve, poor fit]",
CSc1nnc(NC(=O)c2nc(S(=O)(=O)Cc3ccccc3)ncc2Cl)s1,"inconclusive: 14.1 µM [inhibitor, partial curve, poor fit]",
Cc1ccc(NC(=O)C(=O)NCC(c2cccnc2)N2CCN(C)CC2)cc1F (stereo unspecified),"inconclusive: 10 µM [inhibitor, partial curve, poor fit]",
CC(C)C(=O)N1CCN(S(=O)(=O)c2ccc3ccccc3c2)CC1,"inconclusive: 7.08 µM [inhibitor, partial curve, poor fit]",
Cc1ccc(S(=O)(=O)Nc2ccc(-c3nnc(SCc4ccccc4Cl)o3)cc2)cc1,"inconclusive: 18.4 µM [inhibitor, single point]",
COC(=O)c1cccc(NC(=O)c2cc(OC)c(OC)c(OC)c2Br)c1,"inconclusive: 3.98 µM [inhibitor, partial curve, poor fit]",
NS(=O)(=O)c1ccc(NC(=O)c2ccc3c(c2)CCN3S(=O)(=O)c2ccccc2)cc1,inactive,
O=C1Nc2ccc3sc4ccccc4c3c2C1=O,"inconclusive: 1.26 µM [inhibitor, single point]",
COc1cc(C(=O)Nc2cc(OC)c(OC)c(OC)c2)ccc1OCc1c(C)noc1C,,inactive: -20.5%
O=C(O)c1cc(-c2ccccc2)c(N2CCOCC2)s1,,inactive: 6.3%
Cc1ccc(-c2nc3ccccc3o2)cc1NC(=S)NC(=O)c1cc2ccccc2o1,"inconclusive: 31.6 µM [activator, single point]",
Cc1ccc(C)c(S(=O)(=O)NCc2ccc(C(=O)N3CCC(Cc4ccccc4)CC3)cc2)c1,"inconclusive: 29.1 µM [inhibitor, single point]",
COc1ccc(NS(=O)(=O)c2ccc(C)c(C(=O)N(C)CC(=O)Nc3cccc(OC)c3)c2)cc1,"inconclusive: 0.794 µM [inhibitor, single point]",
CC(=O)NNc1nc2ccccc2s1,"inconclusive: 7.3 µM [activator, partial curve, poor fit]",
CC1=C(c2ccc(C)cc2)S(=O)(=O)N(Cc2ccc(C(=O)Nc3ccc(F)cc3C)cc2)C1=O,"inconclusive: 1.41 µM [inhibitor, full curve, poor fit]",
COc1ccccc1NC(=O)CN1C(=O)C2(SCC(=O)N2c2ccc(C)c(C)c2)c2ccccc21 (stereo unspecified),"inconclusive: 3.55 µM [inhibitor, partial curve, poor fit]",
CCCCCCCc1cc2ccccc2c2c(C(C)=O)c(-c3ccccc3)c(C(=O)OC)n12,"inconclusive: 0.188 µM [activator, full curve, poor fit]",
Cc1onc(-c2c(Cl)cccc2Cl)c1C(=O)c1c[nH]c(C(=O)NCC2CCCO2)c1 (stereo unspecified),active: 8.91 µM,
CCOC(=O)Cc1ccc(NS(=O)(=O)c2ccc(SC)cc2)cc1,"inconclusive: 8.91 µM [inhibitor, partial curve]",
CCOc1ccc(N(CC(=O)NC2CC3CCC2C3)S(=O)(=O)c2ccccc2)cc1 (stereo unspecified),active: 10 µM,
CCc1nc(Nc2ccccc2)c2oc3ccccc3c2n1,,inactive: -0.564%

# Copied from the results shown (3 entries):
SMILES,Potency,"activity change, negative = inhibition"
NS(=O)(=O)c1ccc(NC(=O)c2ccc3c(c2)CCN3S(=O)(=O)c2ccccc2)cc1,inactive,
O=C1Nc2ccc3sc4ccccc4c3c2C1=O,"inconclusive: 1.26 µM [inhibitor, single point]",
COc1cc(C(=O)Nc2cc(OC)c(OC)c(OC)c2)ccc1OCc1c(C)noc1C,,inactive: -20.5%

# (continued)

SMILES,Potency,"activity change, negative = inhibition"
CC(=O)Oc1ccc2oc(=O)c3c(c2c1)CCCN3C(=O)CN1CCOCC1,"inconclusive: 5.8 µM [inhibitor, partial curve, poor fit]",
Cc1nnsc1SCC(=O)O,,inactive: -5.85%
CCC(C)NC(=O)c1ccc2nc(Cc3ccc(OC)cc3)oc2c1 (stereo unspecified),"inconclusive: 2.82 µM [inhibitor, full curve] and inconclusive: 1.78 µM [inhibitor, partial curve, poor fit]",
CSc1ccc(CN2CCN(C3CCCC3)C(CCO)C2)cc1 (stereo unspecified),"inconclusive: 10 µM [inhibitor, partial curve, poor fit]",
O=C(Nc1cccc(S(=O)(=O)N2CCCCC2)c1)Nc1ccc(Cl)cc1Cl,"inconclusive: 14.1 µM [inhibitor, single point]",
Cc1ccc(S(=O)(=O)Nc2ccc(N=Nc3ccc(O)cc3)cc2)cc1,"inconclusive: 20.6 µM [inhibitor, single point]",
COC(=O)c1ccc(OCC(O)CN2C(=O)c3ccccc3S2(=O)=O)cc1 (stereo unspecified),"inconclusive: 35.5 µM [inhibitor, single point]",
COCCN(CCOC)S(=O)(=O)c1ccc(C(=O)Nc2nnc(C3CC3)o2)cc1,,inactive: -20.9%
Cc1cccc(OCc2nc(-c3ccc(Br)o3)no2)c1,"inconclusive: 35.5 µM [activator, single point]",
CCOc1ccc2nc(NC(=O)CSCC(=O)Nc3cc(C)on3)sc2c1,"inconclusive: 25.1 µM [inhibitor, single point]",
CC(C)c1ccc(OCC(O)CNC(C)c2ccccc2)cc1 (stereo unspecified),"inconclusive: 12.6 µM [inhibitor, single point]",
CCOC(=O)CC(=O)CSc1nc2ccccc2c(=O)n1-c1ccc(C(=O)N2CCOCC2)cc1,,inactive: 17.9% [at 14.3 µM]
CC(C)CNC(=O)c1cc(-c2ccco2)on1,"inconclusive: 18.3 µM [inhibitor, single point]",
Cc1cc(NCCNC2=CC(=O)CCC2)nc2ccccc12,,inactive: 21.3%
O=C1c2ccccc2C(O)N1c1ccccc1 (stereo unspecified),,inactive: 23.3%
Cc1ccc(C(=O)NNc2cc(N3CCCC3)nc(N3CCCC3)n2)cc1,"inconclusive: 29.1 µM [inhibitor, partial curve, poor fit]",
O=C(Oc1c(CN2CCOCC2)cc(Cl)c2cccnc12)c1ccccc1F,"inconclusive: 35.5 µM [inhibitor, single point]",
CCOC(=O)c1ccccc1NC(=O)c1sc2nc3n(c(=O)c2c1C)CCCC3,"inconclusive: 35.5 µM [inhibitor, single point]",
CCCCOc1ccc(CNC(=O)CCCN2C(=O)CSc3c2c(C)nn3-c2ccccc2)cc1,"inconclusive: 11.2 µM [inhibitor, partial curve, poor fit]",
Cc1c(Cl)cccc1NC(=O)C(C)n1nnc2sc3c(c2c1=O)CCCC3 (stereo unspecified),,inactive: 16.2% [at 46.1 µM]

# From PubChem BioAssay AID540256 (National Center for Advancing Translational Sciences (NCATS), 2011)
